Experimental data: PubChem BioAssay AID743454 (Peter MacCallum Cancer Centre, 2014)
The whole screen tested about 18,000 reagents; this is a random part of them. Over the whole deposit, 450 (2.5%) were called active. 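Single biological run; no consistent viability z cut-off exists, so the class columns, not z-scores, define the calls.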 A number with no mark means an inactive call. Reagent sequences are not shown.

- Purpose: 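Knock-downs lowering viability or raising caspase 3/7 activity in vorinostat-treated resistant cells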 (primary screen)
- System: human HCT116-VR colon cancer cells, selected for vorinostat resistance
- Reagent: siRNA pool against human genes, 40 nM siRNA pool
- Time to read-out: vorinostat for 24 h, read-out about 72 h after transfection
- Treatment: vorinostat at 2.5 µM final
- Measurement: 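Two measures, CellTiter-Fluor viability and luminescent caspase 3/7 activity, each as fold change against same-plate mock wells, mean of duplicates, then screen-wide robust z-score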
- Scale: viability robust z-score: higher = more viable cells than screen typical; caspase robust z-score: higher = more caspase 3/7 activity than screen typical
- Active means: 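a knock-down is a hit when classed RV1 or RV2 for lowered viability, or CA1 or CA2 for caspase activation; those lethal without drug were dropped; hits were retested singly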

| gene | viability hit class | caspase hit class | viability robust z-score | caspase robust z-score |
| --- | --- | --- | --- | --- |
| ETHE1 | no change | no change | -0.3 | 0.68 |
| EIF3B | no change | no change | -2.76 | -1.15 |
| GNL3L | no change | no change | 0.32 | 2.82 |
| TBX10 | no change | no change | 0.7 | 1.29 |
| OLA1 | no change | no change | 1.01 | 0.18 |
| PAGE4 | no change | no change | -1.13 | 0.52 |
| KCNC1 | no change | no change | -0.12 | 0.97 |
| USP8 | no change | no change | 0.31 | -0.18 |
| SYNPO2L | no change | no change | -0.92 | -1.02 |
| CXCR2 | no change | no change | 1.34 | 0.18 |
| PPP3CA | no change | no change | -0.74 | -1.31 |
| ISLR | no change | no change | -0.73 | 0.15 |
| TSPYL2 | no change | no change | 0.16 | -0.4 |
| ASIC3 | no change | no change | 0.68 | 0.84 |
| AURKB | no change | no change | -2.54 | 0.7 |
| GPANK1 | no change | no change | 0.51 | 0.11 |
| PLOD1 | no change | no change | -1.23 | -0.76 |
| CA10 | no change | no change | -1.41 | -0.46 |
| OR2C3 | no change | no change | 0.53 | -0.42 |
| PRKCSH | no change | no change | -0.06 | -1.07 |
| GAB2 | no change | no change | -0.11 | 0.43 |
| ATP6V1A | no change | no change | 0.07 | -1.1 |
| HORMAD1 | no change | no change | -0.3 | 0.75 |
| OR2L13 | no change | no change | 0.32 | -0.92 |
| OR9K2 | no change | no change | -0.81 | -0.4 |
| MEPCE | no change | no change | -2.6 | -0.77 |
| FANCC | no change | no change | -0.28 | -0.6 |
| CCR4 | no change | no change | -0.66 | -1.09 |
| TBC1D16 | no change | no change | 0.64 | 0.62 |
| WASHC2C | no change | no change | -0.26 | 1.05 |
| SPINT1 | no change | no change | -1.25 | 2.49 |
| XPR1 | no change | no change | 0.76 | -0.64 |
| ZNF789 | no change | no change | -0.55 | 0.41 |
| HOXB6 | no change | no change | 1.88 | 0.84 |
| P2RX6 | no change | no change | -1.16 | 3.77 |
| MUSTN1 | no change | no change | -2 | 0.28 |
| ISM2 | no change | no change | -0.55 | 0.52 |
| CDRT4 | no change | no change | -0.88 | 0.8 |
| ZNF23 | no change | no change | 0.64 | -0.42 |
| ABHD17B | no change | no change | 0.84 | 0.48 |
| RBMY1J | no change | no change | -0.97 | -0.52 |
| SOAT2 | no change | no change | -1.05 | -0.62 |
| TMA16 | no change | no change | 0.64 | 0.28 |
| MARCHF11 | no change | no change | 0.64 | 0.41 |
| MGME1 | no change | no change | -0.19 | -0.92 |
| DCTN1 | no change | no change | 0.64 | -0.53 |
| ITGA3 | no change | no change | 2.17 | 0.16 |
| ZFP36 | no change | no change | -0.64 | -0.5 |
| FOXL2 | no change | no change | 1.12 | 0.22 |
| RWDD4 | no change | no change | 0.62 | 0.42 |
| AP3B1 | no change | no change | -1.89 | 4.53 |
| MAP3K7CL | no change | no change | 0.17 | -0.48 |
| FCAMR | no change | no change | 0.45 | -0.38 |
| TMPRSS5 | no change | no change | -0.84 | 0.65 |
| SMAD1 | no change | no change | -0.01 | -0.57 |
| CRIPAK (retired record) | no change | no change | -0.58 | 1.52 |
| PLG | no change | no change | 0.77 | -0.28 |

Taken from above:
Result of ETHE1 in “viability robust z-score”: -0.3
Result of FOXL2 in “caspase robust z-score”: 0.22
Entry for HOXB6 in “viability robust z-score”: 1.88
Value of CXCR2 in “caspase robust z-score”: 0.18
TMPRSS5, caspase hit class = no change
For “caspase hit class”, RWDD4 is entered as no change
